Record: PubChem BioAssay AID1224828 (NIAID, 2016)
Assay: 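Regulators linking TLR4 signalling to p65 nuclear translocation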 (primary screen). System: mouse RAW264.7 G9 macrophage reporter cells (GFP-p65, Tnf promoter-mCherry). Reagent: siRNA pool against mouse genes, 100 nM. Time to read-out: 2 days siRNA transfection, then 40 min LPS before fixation. Treatment: LPS (Salmonella minnesota R595) at 10 ng/ml. Read-out: 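Microscopy ratio of nuclear to perinuclear-ring GFP-p65 signal, scaled to the plate median; gene score is the average of two replicate robust z-scores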. Direction: p65 translocation robust z-score: higher = more nuclear NF-kappaB p65 after LPS than the plate median; nuclear/cytoplasmic p65 ratio: higher = more nuclear NF-kappaB p65. Call rule: 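Active if robust z is above 3.3 (negative regulators) or below -1.56, the Tlr4 control median (positive regulators); activity score 50 or more; control wells not called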. Calls: active = hit (p65 shift raised or lowered); inactive = no clear change.
In all, the deposit lists about 17,000 reagents; below is an unselected part. 762 of all reagents (4.5%) count as active. 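Active calls include both raised and lowered p65 entry, mostly lowered; wells with fewer than 50 cells lack a z-score.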 The raw values are shown without normalisation. The numbers tell different reagents against one gene apart. No sequences are given here.

gene symbol | pool no. | p65 translocation robust z-score | nuclear/cytoplasmic p65 ratio, rep 1 | nuclear/cytoplasmic p65 ratio, rep 2 | low cell count flag | Outcome
Diaph3 | 1 | -0.04 | 1.49 | 1.36 | enough cells to score | inactive
Cc2d1a | 1 | -0.18 | 1.49 | 1.89 | enough cells to score | inactive
Pcid2 | 1 | -0.71 | 1.27 | 1.43 | enough cells to score | inactive
Gfap | 1 | -1.01 | 1.29 | 1.25 | enough cells to score | inactive
Rhog | 1 | -0.9 | 1.41 | 1.37 | enough cells to score | inactive
Spart | 1 | 0.12 | 1.49 | 1.65 | enough cells to score | inactive
Pbx2 | 1 | -0.69 | 1.28 | 1.39 | enough cells to score | inactive
Nt5c3 | 1 | 0.35 | 1.45 | 1.5 | enough cells to score | inactive
Invs | 1 | -0.76 | 1.44 | 1.33 | enough cells to score | inactive
Gdpd1 | 1 | 0.06 | 1.39 | 1.48 | enough cells to score | inactive
Mul1 | 1 | – | 1.27 | 1.28 | fewer than 50 cells per well; well left out of scoring | inactive
Rhod | 1 | 0.19 | 1.42 | 1.66 | enough cells to score | inactive
Sytl5 | 1 | -0.41 | 1.26 | 1.19 | enough cells to score | inactive
Sgo1 | 1 | – | 1.29 | 1.15 | fewer than 50 cells per well; well left out of scoring | inactive
Ntn3 | 1 | -1.07 | 1.31 | 1.27 | enough cells to score | inactive
Nat3 | 1 | -0.08 | 1.76 | 1.59 | enough cells to score | inactive
Cnot10 | 1 | -0.12 | 1.58 | 1.76 | enough cells to score | inactive
Tmem120a | 1 | – | 1.48 | 1.05 | fewer than 50 cells per well; well left out of scoring | inactive
Hoxb6 | 1 | -0.71 | 1.29 | 1.33 | enough cells to score | inactive

5 successive entries already listed, for reference:
gene symbol | pool no. | p65 translocation robust z-score | nuclear/cytoplasmic p65 ratio, rep 1 | nuclear/cytoplasmic p65 ratio, rep 2 | low cell count flag | Outcome
Spart | 1 | 0.12 | 1.49 | 1.65 | enough cells to score | inactive
Pbx2 | 1 | -0.69 | 1.28 | 1.39 | enough cells to score | inactive
Nt5c3 | 1 | 0.35 | 1.45 | 1.5 | enough cells to score | inactive
Invs | 1 | -0.76 | 1.44 | 1.33 | enough cells to score | inactive
Gdpd1 | 1 | 0.06 | 1.39 | 1.48 | enough cells to score | inactive

Next entries:
gene symbol | pool no. | p65 translocation robust z-score | nuclear/cytoplasmic p65 ratio, rep 1 | nuclear/cytoplasmic p65 ratio, rep 2 | low cell count flag | Outcome
Tut7 | 1 | 1.62 | 1.57 | 1.46 | enough cells to score | inactive
Tut7 | 2 | – | 1.36 | 1.31 | fewer than 50 cells per well; well left out of scoring | inactive
Serpina9 | 1 | 1.28 | 1.57 | 1.14 | enough cells to score | inactive
Fam135b | 1 | 1.62 | 1.54 | 1.69 | enough cells to score | inactive
Fam135b | 2 | 0.01 | 1.37 | 1.53 | enough cells to score | inactive
Hormad1 | 1 | – | 1.47 | – | fewer than 50 cells per well; well left out of scoring | inactive
Cav1 | 1 | 0.1 | 2.23 | 1.39 | enough cells to score | inactive
Zfp672 | 1 | – | 1.23 | 1.23 | fewer than 50 cells per well; well left out of scoring | inactive
Zfp672 | 2 | – | 1.18 | 1.3 | fewer than 50 cells per well; well left out of scoring | inactive
Ccdc83 | 1 | 0.01 | 1.3 | 1.27 | enough cells to score | inactive
Eml3 | 1 | -0.26 | 1.54 | 1.8 | enough cells to score | inactive
Fbxo8 | 1 | 1 | 1.6 | 1.5 | enough cells to score | inactive
Tnfsf11 | 1 | -0.8 | 1.37 | 1.44 | enough cells to score | inactive
Tmem123 | 1 | 0.15 | 1.68 | 1.59 | enough cells to score | inactive
Tpcn2 | 1 | -0.58 | 1.49 | 1.39 | enough cells to score | inactive
Hid1 | 1 | -0.74 | 1.35 | 1.4 | enough cells to score | inactive
Zfp750 | 1 | 1.25 | 1.5 | 1.75 | enough cells to score | inactive
Wfdc21 | 1 | 0.11 | 1.48 | 1.54 | enough cells to score | inactive
Or2bd2 | 1 | 1.63 | 1.4 | 1.56 | enough cells to score | inactive
Tnfsf13 | 1 | – | 1.46 | 1.07 | fewer than 50 cells per well; well left out of scoring | inactive
Rln1 | 1 | – | 1.16 | 1.41 | fewer than 50 cells per well; well left out of scoring | inactive
Gata6 | 1 | -1.98 | 1.25 | 1.14 | enough cells to score | active
Slx9 | 1 | 0.72 | 1.19 | 1.51 | enough cells to score | inactive
Znrf2 | 1 | 1.52 | 1.58 | 1.45 | enough cells to score | inactive
Tmx2 | 1 | -1.07 | 1.3 | 1.1 | enough cells to score | inactive
Heph | 1 | 0.61 | 1.86 | 1.52 | enough cells to score | inactive
Fndc4 | 1 | 2.18 | 1.88 | 1.79 | enough cells to score | inactive
Nek4 | 1 | -0.82 | 1.61 | 1.23 | enough cells to score | inactive
Fndc3b | 1 | 0.12 | 1.51 | 1.51 | enough cells to score | inactive
Hscb | 1 | -0.4 | 1.43 | 1.57 | enough cells to score | inactive
Mansc4 | 1 | 0.49 | 1.45 | 1.6 | enough cells to score | inactive
Pcp2 | 1 | 1.13 | 1.59 | 1.29 | enough cells to score | inactive
Peli1 | 1 | -1.91 | 1.14 | 1.06 | enough cells to score | active
Dynlt2b | 1 | 0.63 | 1.64 | 1.52 | enough cells to score | inactive
Padi1 | 1 | – | 1.25 | 1.4 | fewer than 50 cells per well; well left out of scoring | inactive
Klhl5 | 1 | 0.54 | 1.62 | 1.51 | enough cells to score | inactive
Bcl2l11 | 1 | 0.23 | 1.58 | 1.72 | enough cells to score | inactive
Tk1 | 1 | 0.45 | 1.75 | 1.45 | enough cells to score | inactive
Mfn1 | 1 | 2.82 | 2.17 | 1.95 | enough cells to score | inactive
Zfp157 | 1 | 0.12 | 1.4 | 1.5 | enough cells to score | inactive
